According to publication PMC8866402:
No constants are given. Whether binding was seen depends on the method and setting. Tags and fused reporters may be left off the sequences shown.

Experiments:
[1] = target: T1, recombinant human Flag-tagged fortilin (human) (UniProt P13693); test: co-IP; in vitro mixture of recombinant Flag-fortilin, TGF-β1, Flag-p53 and His6-NQO2 in Buffer A (10 mM Tris pH 7.4, 100 mM NaCl, 0.01% NP-40); rabbit anti-fortilin mAb or rabbit IgG, 2 h room temperature; anti-rabbit IgG Dynabeads; four washes in Buffer B (0.3% NP-40); western blot; both purified
T1 sequence: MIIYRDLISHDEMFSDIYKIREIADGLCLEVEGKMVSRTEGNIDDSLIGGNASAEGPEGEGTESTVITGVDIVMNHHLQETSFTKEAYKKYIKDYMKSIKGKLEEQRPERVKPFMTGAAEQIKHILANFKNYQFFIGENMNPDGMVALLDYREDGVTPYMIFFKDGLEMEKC

[2] = target: T1, recombinant human Flag-tagged fortilin (human); test: co-IP; same procedure with recombinant Flag-fortilin, TGF-β2 or TGF-β3 and His6-NQO2; anti-fortilin mAb or IgG; five washes in Buffer B; western blot; both purified

binding [1]: no binding | binding [2]: no binding
B1: recombinant human His6-tagged N-Ribosyldihydronicotinamide:Quinone Reductase 2 (enzyme, UniProt P16083 1-231)
chain: MAGKKVLIVYAHQEPKSFNGSLKNVAVDELSRQGCTVTVSDLYAMNLEPRATDKDITGTLSNPEVFNYGVETHEAYKQRSLASDITDEQKKVREADLVIFQFPLYWFSVPAILKGWMDRVLCQGFAFDIPGFYDSGLLQGKLALLSVTTGGTAEMYTKTGVNGDSRYFLWPLQHGTLHFCGFKVLAPQISFAPEIASEEERKGMVAAWSQRLQTIWKEEPIPCTAHWHFGQ
